About 3,700 (1.2%) of roughly 300,000 compounds were called active. The shares of active, inactive and inconclusive entries below differ from those in the screen. The call rests on the fitted dose curve; tested in HEK293 cells. Where the call is inconclusive, the potency comes from a doubtful curve fit.
Assay: qHTS for Inhibitors of binding or entry into cells for Lassa Virus; further: nearly all actives have a fitted effect of over 50% in size
Conditions: Lassa virus pseudotype entry inhibition, cell reporter; series mostly up to 37.9 µM
For `COc1ccc(O[C@H]2C=C[C@@H](c3ccccc3)O[C@@H]2COC(=O)CC/C(C)=N/O[C@@H](C)c2cn([C@H](CO)Cc3ccccc3)nn2)cc1`, the Potency was inconclusive: 2.59 µM [inhibitor, full curve, poor fit]. In the case of `O=C(CCCCCn1c(=O)c2sccc2n(Cc2ccc(Cl)cc2)c1=O)NCc1ccc2c(c1)OCO2`, the Potency is reported as “inactive”. With `CCOC(=O)CNC(=O)c1sc2nc(C)cc(C)c2c1N` the Potency was inconclusive: 35.5 µM [activator, single point]. In the case of `CN1CCN(c2cc(N3CCCCCC3)c(F)cc2[N+](=O)[O-])CC1`, the Potency is reported as inconclusive: 18.4 µM [inhibitor, single point]. For `CC(C)Cc1nc2oc3c(N4CCN(CCO)CC4)ncnc3c2c2c1CCCC2`, the Potency was inconclusive: 20.6 µM [inhibitor, single point]. For `CCOC(=O)COc1ccc2ccccc2c1/C=C/[N+](=O)[O-]`, the Potency was inconclusive: 15.8 µM [inhibitor, single point]. With `CC(C)OC(=O)C1C2c3ccccc3C(c3ccccc32)C1C(=O)O` (configuration not stated) the Potency was inconclusive: 22.4 µM [activator, partial curve, poor fit]. In the case of `COc1ccc2c(c1)c(=O)c(C(=O)c1ccc(F)cc1)cn2CC(=O)Nc1ccc2c(c1)OCO2`, the Potency is reported as “inactive”. With `O=C(c1ccc(F)cc1)C(Cc1ccccc1)N1CCCCC1` (configuration not stated) the Potency was “inactive”. In the case of `CC(=O)c1c(C)[nH]c(C(=O)CSc2nnc3ccccn23)c1C`, the Potency is reported as inconclusive: 32.6 µM [activator, single point]. In the case of `COc1ccc(S(=O)(=O)N2CCN(c3cccc(C)c3C)CC2)c2ccccc12`, the Potency is reported as inconclusive: 35.5 µM [activator, single point]. For `CCc1c(C)nc2nncn2c1NCc1ccccc1`, the Potency was “inactive”. For `C/C(=N\NC(=O)c1ccccc1[N+](=O)[O-])c1c(O)cc(C)oc1=O`, the Potency was inconclusive: 12.6 µM [activator, partial curve, poor fit]. With `Cc1nn(Cc2ccc(Cl)c(Cl)c2)c(C)c1NC(=O)c1sc2ccccc2c1Cl` the Potency was inconclusive: 4.11 µM [activator, partial curve, poor fit]. In the case of `COC(=O)c1c(N2C(=O)[C@H]3[C@@H](C2=O)[C@]2(C(=O)Nc4c2ccc(C)c4C)N2CCC[C@@H]32)sc(C)c1C`, the Potency is reported as “inactive”. With `CC(=O)NC12CC3CC(C)(C1)CC(NC(C)=O)(C3)C2` the Potency was “inactive”. With `Cc1nc2ccc(NC(=O)c3ccc(S(=O)(=O)N(C)c4ccccc4)cc3)cc2s1` the Potency was inconclusive: 28.2 µM [inhibitor, single point]. In the case of `COc1cc(C(=O)ON=C2C=C(C)C(=O)C(C)=C2)cc(OC)c1OC`, the Potency is reported as “inactive”. For `Cc1cc(C)c(C(N)=O)c(Nc2cccc(Cl)c2C)n1`, the Potency was inconclusive: 0.82 µM [inhibitor, full curve, poor fit]. For `CC(C)c1ccc(NC(=O)N2c3ccccc3Sc3ccccc32)cc1`, the Potency was “inactive”. In the case of `CCOc1cccc(NC(=O)/C(C#N)=C\c2cccnc2)c1`, the Potency is reported as inconclusive: 11.2 µM [activator, single point]. With `CC(=O)Nc1ccc(NC(=O)c2c(C)nn(Cc3ccccc3)c2Cl)cc1` the Potency was “inactive”. For `C=CCNC(=S)Nc1ccc(N2CCOCC2)c(S(=O)(=O)Nc2ccccc2Cl)c1`, the Potency was inconclusive: 1 µM [inhibitor, single point]. With `COc1ccc(-c2cc(C(=O)N3CCN(c4ccccc4)CC3)no2)cc1` the Potency was inconclusive: 3.16 µM [inhibitor, single point]. In the case of `Cc1cccc(N2CCn3c2nc2c3c(=O)n(C/C=C/c3ccccc3)c(=O)n2C)c1`, the Potency is reported as “inactive”. In the case of `Cc1ccc(/C=C/c2nnc(-c3cccs3)o2)cc1`, the Potency is reported as active: 10.3 µM. For `O=C(Nc1ccccc1)c1ccc(Cn2cc(C(F)(F)F)ccc2=O)cc1`, the Potency was inconclusive: 0.092 µM [inhibitor, full curve, poor fit]. For `Cc1ccccc1Cn1c(=O)n(CCCC(=O)NCc2ccco2)c(=O)c2sccc21`, the Potency was inconclusive: 18.3 µM [inhibitor, single point]. In the case of `Cc1cc(NCc2ccccn2)n2ncc(-c3ccc(Cl)cc3)c2n1`, the Potency is reported as “inactive”. With `COc1ccc(C(=O)n2c(SC)nc3cc4c(cc32)OCCO4)cc1` the Potency was “inactive”. In the case of `N#Cc1c(-c2ccco2)cc(-c2ccccn2)nc1N`, the Potency is reported as “inactive”. With `CN1C(=O)C2(C(C#N)=C(N)Oc3n[nH]c(-c4ccc(Cl)cc4)c32)c2ccccc21` (configuration not stated) the Potency was inconclusive: 20 µM [inhibitor, single point]. In the case of `CCN(CC)C(=O)c1ccc(S(=O)(=O)N2CCC(c3nc4ccccc4s3)CC2)cc1`, the Potency is reported as inconclusive: 16.4 µM [inhibitor, single point]. In the case of `S=C1NC2=C(CCCC2)C2(CCCCC2)N1`, the Potency is reported as “inactive”. With `CN1C(C(=O)Nc2cccc(O)c2)=CC(c2ccco2)=NS1(=O)=O` the Potency was “inactive”. In the case of `COc1cc(C)c(C(=O)CSc2nnc(CNC(=O)c3ccco3)n2C)cc1C`, the Potency is reported as “inactive”. For `COC(=O)c1ccsc1NC(=O)CN1CCN(c2ccc(F)cc2)CC1`, the Potency was inconclusive: 10 µM [inhibitor, partial curve]. For `CCN(Cc1ccccc1)Cc1c(O)ccc2oc(C)c(C(=O)Nc3ccc(C)cc3C)c12`, the Potency was inconclusive: 35.5 µM [inhibitor, single point]. In the case of `COc1cc2ccccc2cc1C(=O)NC(=S)Nc1ccc(C(=O)O)cc1`, the Potency is reported as “inactive”. With `O=c1c(-c2ccccc2)c(O)c2c(n1-c1ccccc1)CCCC2` the Potency was inconclusive: 0.092 µM [inhibitor, partial curve, poor fit]. For `CSCCC(NC(=O)COc1ccccc1)C(=O)N1CCN(C(C)=O)CC1` (configuration not stated), the Potency was inconclusive: 6.31 µM [inhibitor, single point]. With `COCCCNC(=O)CCn1c(=O)c2ccccc2n(CC(=O)Nc2cc(Cl)ccc2OC)c1=O` the Potency was “inactive”. For `Cc1cc(/C=C2/SC(=S)N(c3ccc([N+](=O)[O-])cc3)C2=O)c(C)n1-c1cccnc1`, the Potency was “inactive”. In the case of `COc1ccc(S(=O)(=O)N2CCCN(S(=O)(=O)c3ccc(OC)c(C)c3)CC2)cc1C`, the Potency is reported as inconclusive: 13 µM [inhibitor, partial curve, poor fit]. For `CCCc1cc(-c2nc(N)ncc2-c2ccc3c(c2)OCCCO3)c(O)cc1OC`, the Potency was inconclusive: 35.5 µM [inhibitor, single point]. In the case of `O=C(c1ccco1)N1CCN(C(=O)c2ccc(COc3ccc(F)cc3)o2)CC1`, the Potency is reported as inconclusive: 5.01 µM [inhibitor, partial curve]. For `CC(C)C(NS(=O)(=O)c1cccc(C(F)(F)F)c1)C(=O)N1CCc2ccccc2C1` (configuration not stated), the Potency was inconclusive: 35.5 µM [inhibitor, single point]. With `COc1ccc(C(=O)N/C(=C/c2cccs2)C(=O)NCCCn2ccnc2)cc1OC` the Potency was inconclusive: 3.26 µM [inhibitor, single point]. With `CC(=O)c1ccc(NC(=S)NCc2cccnc2)cc1` the Potency was “inactive”. With `Cc1ccc(CNS(=O)(=O)c2c(C)[nH]c(C)c2C(=O)N2CCCCC2)o1` the Potency was “inactive”. With `Cc1cccc(NC(=O)CSc2nnc(CNC(=O)c3ccc(S(=O)(=O)N(C)C)cc3)n2-c2ccc(F)cc2)c1` the Potency was inconclusive: 13 µM [inhibitor, partial curve]. In the case of `O=S(=O)(c1ccc(F)cc1)N1CCN(c2nc(-c3ccc(F)cc3)cs2)CC1`, the Potency is reported as inconclusive: 29.1 µM [inhibitor, single point]. In the case of `O=C(c1ccc2c(=O)n(C3CCCC3)c(=S)[nH]c2c1)N1CCCCCC1`, the Potency is reported as inconclusive: 11.2 µM [inhibitor, partial curve, poor fit]. For `Cc1ccc(NC(=O)/C(Cl)=C\c2ccccc2)cc1`, the Potency was active: 4.47 µM. For `Cc1cc(C(=O)OCc2nc3ccccc3s2)c(C)o1`, the Potency was “inactive”. In the case of `COc1ccc(NC(=O)CN(C)CC(=O)Nc2cccc(C(F)(F)F)c2)cc1`, the Potency is reported as inconclusive: 3.98 µM [activator, partial curve, poor fit]. For `O=C(/C=C/c1ccccc1Cl)Nc1nc(-c2cccs2)ns1`, the Potency was inconclusive: 35.5 µM [activator, single point]. With `Cc1ccc(NC(=O)Cn2c(=O)n(Cc3nc(C)no3)c(=O)c3cc4c(cc32)OCO4)cc1` the Potency was “inactive”. In the case of `CCN(Cc1nc(-c2ccc(OC)c(OC)c2)no1)C(=O)c1ccc2c(c1)OCO2`, the Potency is reported as inconclusive: 1.26 µM [inhibitor, single point]. In the case of `CC(=O)NC(CC(=O)OCC(=O)Nc1cc(S(=O)(=O)N2CCCCC2)ccc1C)c1ccccc1` (configuration not stated), the Potency is reported as inconclusive: 0.316 µM [inhibitor, partial curve, poor fit]. With `Nc1c(C(=O)NCCN2CCOCC2)c2nc3ccccc3nc2n1-c1ccccc1` the Potency was inconclusive: 4.11 µM [inhibitor, single point]. For `C[N+]1(CCCOC(=O)C2(c3ccccc3)CCCC2)CCOCC1`, the Potency was “inactive”. With `Cc1ccc(NC(=S)NC(=O)C2CCC2)cc1C` the Potency was inconclusive: 0.891 µM [inhibitor, partial curve, poor fit]. For `COc1ccccc1N1CCN(C(=O)c2ccc3[nH]c4c(c3c2)CC(C)CC4)CC1` (configuration not stated), the Potency was inconclusive: 25.1 µM [inhibitor, single point]. With `COc1ccc(CCNc2c3ccccc3nc3ccccc23)cc1OC` the Potency was inconclusive: 35.5 µM [inhibitor, single point]. In the case of `COc1ccccc1-n1c(SCC(=O)NCc2ccc3c(c2)OCO3)nc2cc([N+](=O)[O-])ccc21`, the Potency is reported as inconclusive: 0.447 µM [inhibitor, partial curve, poor fit]. For `O=C(Nc1ccc(-c2noc(CCc3ccccc3)n2)cc1)c1ccco1`, the Potency was inconclusive: 10 µM [inhibitor, partial curve, poor fit].

Source: PubChem BioAssay AID540256 (National Center for Advancing Translational Sciences (NCATS), 2011)
Potency means the concentration at half of the fitted maximal effect.
